Reference: PubChem BioAssay AID2685 (National Center for Advancing Translational Sciences (NCATS), 2010)
Some of the results follow. These are further read-outs of the screen, such as a control signal, another cell line or another target. No call is given for them. Compounds called inactive in the main read-out are mostly missing here. Potencies come from curve fits of mixed quality, noted in brackets.

Experiment: qHTS Assay for Lipid Storage Modulators in Drosophila S3 Cells;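 on cell number change: cells counted by Cell Tracker Red CMTPX staining in the red channel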
Settings: BODIPY lipid droplet fluorescence, 18-24 h; for cell number change: measured here: cell count max response, cells fed with added oleic acid
Summary of the method: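 Drosophila S3 cells got compounds at several concentrations plus oleic acid (400 uM solution). Laser-scanning cytometry with 488 nm excitation read lipid droplets at 500-530 nm and cells at 575-640 nm. Percent activity was relative to 20 uM Triacsin C.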

[1] = measured here: lipid fluorescence (Fed channel) AC50, cells fed with added oleic acid
[2] = measured here: cell number channel AC50, cells fed with added oleic acid

Compound | cell number change | AC50 [1] | AC50 [2]
Cc1ccc(NC(=O)COc2ccc(-c3nnco3)cc2)cc1S(=O)(=O)N1CCOCC1 | 20.8% | 3.26 µM [rising, partial curve] | –
Cc1ccc(C2=CSC3=NCCN23)c(C)c1 | -14.6% | 0.013 µM [falling, full curve] | –
CC12C(=O)N(c3nccs3)C(=O)C1C1C=CC2C1 (centres undefined) | -33.2% | 29.1 µM [falling, single point] | 29.1 µM [falling, single point]
CC(C)C(=O)Nc1nnc(SCC(=O)NCc2ccc3c(c2)OCO3)s1 | 7.14% | 0.146 µM [falling, full curve, poor fit] | 0.146 µM [falling, full curve, poor fit]
O=P1(Nn2cnnc2)C=C(c2ccccc2)OC(c2ccccc2)=C1 | 33.4% | 29.1 µM [rising, single point] | –
COc1ccccc1C(=O)NC(=S)Nc1ccc(N2CCN(C(=O)c3ccco3)CC2)cc1 | -36.1% | 3.66 µM [falling, single point] | 7.31 µM [falling, partial curve]
CCCn1c(=S)[nH]c2cc(OC)c(OC)cc2c1=O | – | 23.1 µM [rising, partial curve, poor fit] | 0.259 µM [rising, partial curve, poor fit]
Cc1ccc(CN2CCN(C(=O)c3cccc4ccccc34)CC2)cc1 | 31.9% | – | 0.146 µM [rising, full curve, poor fit]
COc1cc([C@@H]2[C@H]3CN(C)CC=C3C(C#N)=C(N)C2(C#N)C#N)cc2c1OCO2 | – | – | 6.51 µM [rising, single point]
CCn1c(-c2ccccc2SC)n[nH]c1=S | -16.4% | – | –
O=C(O)CCCC(=O)NCCc1cccc(Cl)c1 | -25.7% | 0.651 µM [falling, full curve] | –
Cc1cc(=O)[nH]c(N/N=C/c2cccs2)n1 | -21.2% | 25.9 µM [falling, single point] | –
CCN(C(=O)COC(=O)c1ccc(=O)n(Cc2ccccc2)n1)C1CCS(=O)(=O)C1 (centres undefined) | -6.51% | 0.461 µM [falling, single point] | –
Cc1cc(C)cc(C(=O)NCc2ccc3c(c2)OCO3)c1 | -5.77% | 25.9 µM [rising, single point] | –
Cc1c(Cc2ccccc2)c(=O)oc2c(C)c(OCC(=O)N[C@@H](Cc3ccccc3)C(=O)O)ccc12 | 15.5% | 23.1 µM [rising, single point] | –
Cc1ccc(Nc2cc(C)nn2-c2nc(C)cc(=O)[nH]2)cc1 | -24.1% | 5.17 µM [falling, full curve, poor fit] | 5.8 µM [falling, partial curve, poor fit]
Nc1cc(C2CCCC2)nn1-c1ccccc1 | -13% | 6.51 µM [rising, single point] | –
CCOc1ccc(NC(=O)C/C(C)=N/NC(=O)c2cnccn2)cc1 | 21.5% | 29.1 µM [rising, single point] | –
Cc1ccc(-n2ccc(=O)c(C(=O)Nc3ccc(S(=O)(=O)Nc4nccs4)cc3)n2)cc1 | 13.5% | 6.51 µM [rising, single point] | –
O=C(Nc1ccccc1)C1CCN(C(=O)c2ccccc2)CC1 | 5.94% | – | –

Compound | cell number change | AC50 [1] | AC50 [2]
CCC(c1nnc(SCC(=O)NC23CC4CC(CC(C4)C2)C3)o1)N(C)C (centres undefined) | -28.1% | 23.1 µM [falling, single point] | –
Cc1ccccc1N(C(=O)c1csnn1)C(C(=O)NC1CCCCC1)c1ccncc1 (centres undefined) | 11.7% | – | –
COc1cc2c(cc1NC(=O)COC(=O)[C@@H](NC(=O)c1ccccc1)C(C)C)oc1ccccc12 | -11.5% | 9.2 µM [falling, single point] | –
O=C(NCCN1CCN(c2ccccc2)CC1)c1ccc2c(c1)[nH]c(=S)n1c3ccccc3nc21 | -33.4% | 29.1 µM [falling, single point] | 29.1 µM [falling, single point]
CCOC(=O)CN1CCS(=O)(=O)CC1 | -34.5% | 5.01 µM [falling, partial curve] | 7.08 µM [falling, full curve, poor fit]
Cc1ccccc1OCC(=O)O/N=C(\N)Cc1ccc(Cl)cc1 | 67.8% | – | 10.3 µM [rising, partial curve]
Cc1ccc(C(=O)CCNc2cccc(Br)c2)o1 | -18.1% | – | –
COC(=O)/C=C(\C)N=Nc1c(O)[nH]c2ccccc12 | -42.8% | 16.4 µM [falling, partial curve] | 14.6 µM [falling, partial curve]
CCn1c(-c2cc(-c3ccccc3OC)nc3ccccc23)n[nH]c1=S | 39% | 8.2 µM [rising, partial curve] | 7.31 µM [rising, partial curve]
Cc1onc(-c2ccccc2)c1C(=O)Nc1nc2c(s1)C(=O)CC(C)(C)C2 | 77.6% | 6.51 µM [rising, single point] | 14.6 µM [rising, partial curve]
C/C=C/c1ccc(OCCCNC2CCCC2)c(OC)c1 | 1.94% | 29.1 µM [falling, single point] | –
COc1cccc(CNC(=O)CSC(=S)N2CCCC2)c1 | -20.9% | – | 0.731 µM [falling, full curve, poor fit]
CCOC(=O)CCS(=O)(=O)c1nc(-c2ccccc2)cc(C(F)(F)F)n1 | -86.4% | 29.1 µM [falling, single point] | 20.6 µM [falling, partial curve]
O=C(Nc1ccccc1C(=O)OCC(=O)c1c[nH]c2ccccc12)c1ccco1 | -14.2% | – | –
COc1ccc(N(C)S(=O)(=O)c2cccc(C(=O)NCc3ccc(C)cc3)c2)cc1 | -13.4% | 6.51 µM [rising, single point] | –
Cc1ccc(CNC(=O)CN(c2ccc(C(C)C)cc2)S(=O)(=O)c2c(C)noc2C)cc1 | 3.04% | – | –
OCCNc1cnc2ccccc2n1 | -15.5% | 29.1 µM [falling, single point] | –
COc1ccc2sc(-c3ccc(SC)cc3)c(C#CC(C)(C)O)c2c1 | -36.9% | 0.58 µM [rising, single point] | 8.2 µM [falling, single point]
Cc1cc(NC(=O)Cc2ccccc2)c2ccccc2n1 | -36.6% | 16.4 µM [falling, single point] | 25.9 µM [falling, single point]
CCOC(=O)Cc1csc(NC(=S)NC(=O)c2ccc(Cl)cc2)n1 | -5.52% | – | –

As entered above.
Entry of `Cc1ccc(CNC(=O)CN(c2ccc(C(C)C)cc2)S(=O)(=O)c2c(C)noc2C)cc1` under cell number change: 3.04%
Entry of `COc1cc([C@@H]2[C@H]3CN(C)CC=C3C(C#N)=C(N)C2(C#N)C#N)cc2c1OCO2` under AC50 [2]: 6.51 µM [rising, single point]
Entry of `Cc1cc(NC(=O)Cc2ccccc2)c2ccccc2n1` under AC50 [2]: 25.9 µM [falling, single point]

Later entries.

Compound | cell number change | AC50 [1] | AC50 [2]
Cc1noc(C)c1C(=O)OCC(=O)N(C)C1(C#N)CCCCC1 | -14.4% | 23.1 µM [falling, single point] | –
CCOC(=O)C1=C(CC)Nc2ccccc2N=C1NC(=O)c1cc(C)on1 | 7.31% | 3.26 µM [falling, single point] | 6.51 µM [rising, single point]
O=C(c1ccc(OC2CCN(C/C=C/c3ccccc3)CC2)cc1)N1CCCC1 | 28.8% | 0.731 µM [rising, single point] | –
COc1cccc(/C=C2\SC(=S)N(CCCC(=O)N3CCCCC3)C2=O)c1 | 0.215% | 32.6 µM [falling, single point] | –
OCCC1CN(Cc2cc3ccccc3o2)CCN1Cc1ccc(F)cc1 (centres undefined) | 7.88% | 20.6 µM [rising, single point] | –
Cc1cc(C)cc(NC(=O)C2CC3CCC2C3)c1 (centres undefined) | 13.3% | – | 0.00411 µM [rising, full curve, poor fit]
COc1cccc(C(=O)c2cc3ccc(O)cc3oc2=O)c1 | -19.4% | 0.366 µM [falling, full curve, poor fit] | –
CCCc1nnc(SCC(=O)NC2CC2)n1C | 26.1% | 0.206 µM [rising, single point] | –
COc1ccccc1NS(=O)(=O)c1c(C)[nH]c(C)c1C(=O)N1CCCC1 | – | 6.51 µM [rising, single point] | –
COC(=O)/C(=C/Nc1cccc2ccccc12)[N+](=O)[O-] | -16.7% | 0.116 µM [rising, full curve] | –
Cc1cccc(N2CCN(S(=O)(=O)c3ccc(S(=O)(=O)N4CCCC4)cc3)CC2)c1C | – | 0.13 µM [falling, full curve, poor fit] | –
COc1ccc(S(=O)(=O)N2CCOCC2)cc1C(=O)NCC(c1ccco1)N1CCCC1 (centres undefined) | -5.44% | 0.326 µM [rising, full curve, poor fit] | –
CN(C)c1ccc(C(c2nnnn2C(C)(C)C)N2CCc3ccccc3C2)cc1 (centres undefined) | -0.111% | 3.66 µM [falling, partial curve] | –
Cc1onc(-c2ccccc2Cl)c1C(=O)N1CCC(C(N)=O)CC1 | 5.65% | 2.59 µM [falling, single point] | –
Cc1ccc(C)c(N2CCN(C(=O)CN(C)S(=O)(=O)c3ccc4c(c3)CCC(=O)N4)CC2)c1 | -10.3% | 20.6 µM [falling, partial curve, poor fit] | –
COc1cc(C)c(Cl)cc1S(=O)(=O)NCc1ccco1 | -3.38% | 20.6 µM [falling, single point] | –
O=C(NC1CCCN(c2ccc(C(F)(F)F)cn2)C1)c1cc(Cl)ccc1F (centres undefined) | 3.52% | 5.17 µM [falling, single point] | –
COc1ccc(NC(=O)c2sc3nc(C)nc(N4CCN(c5ccccn5)CC4)c3c2C)c(OC)c1 | -6.27% | 6.51 µM [falling, single point] | –
